Data taken from patent US9458203B2, “Integrin-blocking polypeptides and uses thereof” (priority 2011, dated 2016).
At least one peptide structure holds a part that was inferred or is arguable (an end, a ring closure or a residue). Ends that are not written are not given here.

Tested on: human colon cancer HT-29
Type: in vivo, nude mice
Details: 0.1875 mg/kg/time, daily, tail vein injection

Sequence “FQPVLHLVALNSPLSGGMRGIRGADFQCFQQARAVGLAGTFRAGGGGRGD [polypeptide II I]” has a tumor inhibition rate of 83.70% and a tumor weight of 0.23 ± 0.07 g.
